# Measurements as given in the supplement of paper PMC4371806.
# Over roughly 1,600 compounds, “plate-normalized OD600 growth (mean of duplicates)” has its median near 0.31; the lowest 2% begin near 0.23. The list shows a part of the results.
# Tested on: Escherichia coli BW25113
# Experiment: plate-normalized OD600 growth (mean of duplicates) (OD600 (normalized)); higher = more growth (less inhibition)
# Conditions: 10 µM
# Method: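 E. coli BW25113 in LB (100 µl, 96-well, no shaking) was exposed to 10 µM of each compound (here the ChemBridge subset of a ~30,000-member library) and grown at 37°C for 24 h or 15°C for 48 h, in duplicate. Growth was read as OD600 and the duplicate ODs were normalized across screening plates to correct plate-to-plate variation.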
Structure (SMILES),"plate-normalized OD600 growth (temperature: 15°C, 48 h)","plate-normalized OD600 growth (temperature: 37°C, 24 h)"
Cc1c(Cl)cccc1NC(=O)c1cccnc1,0.265,0.631
CC1(C)CC(=O)C2=C(C1)Nc1ccccc1NC2c1ccc(Br)cc1 (stereo not given),0.275,0.627
COc1cccc(OC)c1C(=O)Nc1cccc(F)c1,0.265,0.625
COc1cc2c(cc1NC(=O)C(Cl)Cl)oc1ccccc12,0.232,0.619
O=[N+]([O-])c1cc(Cl)ccc1N1CCCNCC1,0.244,0.592
CC(=O)N1c2ccccc2CCc2ccc(N)cc21,0.25,0.625
O=C(Nc1ccccc1[N+](=O)[O-])C1=C(O)CCn2c1nc1ccccc12,0.244,0.589
O=C(O)CSc1nccn1Cc1ccccc1,0.244,0.625
CN1C(=O)CC(N2CCN(C(c3ccccc3)c3ccccc3)CC2)C1=O (stereo not given),0.259,0.623
CN(CCc1ccccn1)Cc1ccc(Cl)c(Cl)c1,0.222,0.622
COC(=O)Nc1ccc(S(=O)(=O)N2CCCCC2)cc1,0.238,0.599
COc1cc(C)c(CN2CCc3c([nH]c4ccccc34)C2)cc1C,0.229,0.597
C=CCn1c(N)c(S(=O)(=O)c2ccccc2)c2nc3ccccc3nc21,0.248,0.606
Cc1nc(N)nc(OCC(F)(F)C(F)F)c1Br,0.221,0.604
O=c1ccn(Cc2ccccc2)c(=O)[nH]1,0.251,0.609
Cc1cc(F)c(F)cc1C(=O)Nc1cccc(F)c1,0.255,0.642
Cc1cccc(NS(=O)(=O)c2cccc(C(=O)Nc3ccc([N+](=O)[O-])cc3)c2)c1,0.246,0.61
Cc1c(Cc2ccccc2)sc(N)c1C(N)=O,0.258,0.626
Cn1c2ccccc2n2c(C=O)c(-c3ccccc3)nc12,0.256,0.624
O=[N+]([O-])c1ccccc1/C=C/CN1CCN(c2ncccn2)CC1,0.246,0.623
Cc1ccc(NC(=O)COc2ccc(C)cc2)cc1,0.244,0.597
CN(C)CC(C)(C)CNC1CC2CCC1C2 (stereo not given),0.265,0.649
O=C(NC1C2CC3CC(C2)CC1C3)c1cccc([N+](=O)[O-])c1 (stereo not given),0.23,0.655

# Record cards (already shown). Order of values: plate-normalized OD600 growth (temperature: 15°C, 48 h) | plate-normalized OD600 growth (temperature: 37°C, 24 h)
# Cc1c(Cc2ccccc2)sc(N)c1C(N)=O in the list: 0.258 | 0.626
# Cc1cc(F)c(F)cc1C(=O)Nc1cccc(F)c1 in the list: 0.255 | 0.642
# Cc1cccc(NS(=O)(=O)c2cccc(C(=O)Nc3ccc([N+](=O)[O-])cc3)c2)c1 in the list: 0.246 | 0.61
# O=[N+]([O-])c1cc(Cl)ccc1N1CCCNCC1 in the list: 0.244 | 0.592

# Some of these compounds in order of length of the SMILES, rising:
Structure (SMILES),"plate-normalized OD600 growth (temperature: 15°C, 48 h)","plate-normalized OD600 growth (temperature: 37°C, 24 h)"
O=C(O)CSc1nccn1Cc1ccccc1,0.244,0.625
Cc1c(Cl)cccc1NC(=O)c1cccnc1,0.265,0.631
Cn1c2ccccc2n2c(C=O)c(-c3ccccc3)nc12,0.256,0.624

# (further entries)

Structure (SMILES),"plate-normalized OD600 growth (temperature: 15°C, 48 h)","plate-normalized OD600 growth (temperature: 37°C, 24 h)"
CC1=CCC2C(=O)N(C3CCCCC3)C(=O)C2C1 (stereo not given),0.262,0.621
NC(=O)C1CCCN(CC2CC=CCC2)C1 (stereo not given),0.249,0.576
Nc1nc(-c2ccc(NC(=O)c3ccc(Cl)cc3)cc2)cs1,0.247,0.6
COc1ccc(NS(=O)(=O)c2ccc(NS(=O)(=O)c3ccccc3[N+](=O)[O-])cc2)nn1,0.254,0.616
O=C(Nn1cnnc1)c1ccccc1I,0.248,0.627
Cc1cccc(N2C(=O)CC(N3CCOCC3)C2=O)c1 (stereo not given),0.247,0.591
CCC(=O)C1=C(N2CCOCC2)CC(C)(C)CC1=O,0.272,0.643
c1ccc(-c2nnc3n2C2(CCCC2)Cc2ccccc2-3)cc1,0.246,0.629
CC(NC(=O)CCC(=O)O)c1ccccc1 (stereo not given),0.304,0.641
Cc1cc(C)c(C2C(C#N)=C(N)Oc3n[nH]c(C)c32)c(C)c1 (stereo not given),0.218,0.621
O=C(NCc1ccccn1)C(=O)Nc1cccc(Cl)c1,0.26,0.651
O=C(O)CCN(CC(=O)O)C(=O)c1ccccc1,0.238,0.63
O=C(/C=C/Nc1ccccn1)c1ccc(Cl)s1,0.249,0.619
CCc1ccc2oc(-c3ccc(N)cc3)nc2c1,0.236,0.605
CCN(CC)C(=O)CSc1nc(O)cc(=O)n1C,0.235,0.622
N#CC1=C(N)OC2=C(C(=O)CC(c3ccccc3)C2)C1C1CCCCC1 (stereo not given),0.236,0.614
C/C(=C\c1ccccc1)CN(C)C1CCN(C)CC1,0.249,0.637
CSc1nnc2n(C)c(=O)c3c4c(sc3n12)COC(C)(C)C4,0.246,0.62
OC1CCC(C2CC3CCC2C3)CC1O (stereo not given),0.25,0.62
NC(=O)COc1ccc([N+](=O)[O-])cc1,0.25,0.62
Cc1cccc(N2CCN(Cc3ccsc3)CC2)c1C,0.258,0.626
CC(NC(=O)c1ccccc1)C(O)c1ccccc1 (stereo not given),0.264,0.63
Cc1cccc(C)c1OCCCN1CCOCC1,0.269,0.619

Structure (SMILES),"plate-normalized OD600 growth (temperature: 15°C, 48 h)","plate-normalized OD600 growth (temperature: 37°C, 24 h)"
COc1ccc(NC(=O)c2cccnc2)cc1,0.24,0.645
O=C1CC(N2CCN(C(c3ccccc3)c3ccccc3)CC2)C(=O)N1 (stereo not given),0.253,0.609
NC(=O)C1(S(=O)(=O)c2ccccc2)CC1,0.242,0.628
N#CC(=Cc1cc2c(cc1Br)OCO2)c1nc2ccccc2[nH]1,0.273,0.61
CC1(C)CC(=O)C=C(NN2CCOCC2)C1,0.241,0.609
COc1cccc(OC)c1C(=O)N1CCN(Cc2cccc([N+](=O)[O-])c2)CC1,0.266,0.645
Cc1cc(NO)nc(-c2ccc(Br)cc2)n1,0.221,0.622
O=c1cc(-c2ccccc2)c2cc(Br)ccc2[nH]1,0.265,0.659
Cc1ccc(-c2nc3ccccc3[nH]2)cc1N,0.222,0.616
COc1ccc(NC(=O)C(C)(C)C)cc1,0.265,0.636
Cc1nn(-c2ccccc2)c2c1C(c1cccc([N+](=O)[O-])c1)C(C#N)=C(N)O2 (stereo not given),0.239,0.624
O=C1CC(N2CCN(Cc3ccc4c(c3)OCO4)CC2)C(=O)N1c1ccccc1 (stereo not given),0.258,0.625
O=C(Nc1cc(Cl)ccc1Cl)c1cnccn1,0.234,0.624
O=C(O)CSc1nc2ccccc2[nH]1,0.259,0.621
N#CCCn1nc(-c2ccccc2)cc1-c1ccccc1,0.245,0.59
CC(C)C(=O)Nc1c2c(nc3ccccc13)N(C)CC2,0.259,0.649
O=c1nc(-c2ccc(Cl)cc2)oc2ccccc12,0.246,0.609
CC1CC(C)CN(S(=O)(=O)c2ccc(Cl)cc2)C1 (stereo not given),0.247,0.651
Cn1c(CNC2CCCCC2)nc2ccccc21,0.242,0.6
CCCOc1ccc(-c2cn(CC(=O)NN)cn2)cc1,0.273,0.619
COc1ccc2[nH]cc(CCNC(=O)c3ccc(Cl)cc3)c2c1,0.252,0.632
O=C1CCC(=O)N1c1ccc(Sc2ccc([N+](=O)[O-])cc2)cc1,0.243,0.611
COc1ccccc1NS(=O)(=O)c1ccc(Cl)cc1,0.256,0.651

Structure (SMILES),"plate-normalized OD600 growth (temperature: 15°C, 48 h)","plate-normalized OD600 growth (temperature: 37°C, 24 h)"
O=[N+]([O-])c1ccccc1CNC1C2CC3CC(C2)CC1C3 (stereo not given),0.238,0.612
N#CSc1cnc(NC2CCCCC2)s1,0.254,0.611
O=C(O)C1CC1(c1ccccc1)c1ccccc1 (stereo not given),0.251,0.622
CS(=O)(=O)N1CCN(c2ccc([N+](=O)[O-])c3cccnc23)CC1,0.267,0.645
N#C/C(=C\c1cc2c(cc1Br)OCO2)c1ccc([N+](=O)[O-])cc1,0.263,0.629
COc1ccc(Br)cc1CN1CCSCC1,0.247,0.615
O=c1cc(Nc2cccc(Cl)c2)[nH]c(=O)[nH]1,0.262,0.634
CCOc1ccc(C2(C)NC(=O)N(CCN(C)C)C2=O)cc1 (stereo not given),0.23,0.613
CC1(C)C(=O)N(O)C(C)(C)C(=O)N1O,0.269,0.632
C(#CC12CC3CC(CC(C3)C1)C2)CN1CCOCC1,0.245,0.615
C=CCSc1nc(O)c(CC)c(=O)n1-c1ccc(C)cc1,0.229,0.599
COc1ccc(-c2cc(=O)c3ccccc3o2)cc1,0.244,0.596
COc1cc(CN2CCN(c3ccc([N+](=O)[O-])cc3)CC2)ccc1O,0.253,0.66
CCOc1ccc(Cl)cc1/C=C(/C#N)c1nc2ccc(C)cc2[nH]1,0.27,0.63
O=C(O)CCC(=O)Nc1ccccc1C#Cc1ccc(Br)cc1,0.257,0.597
Fc1ccc(CN2CCN(c3ncccn3)CC2)cc1,0.253,0.629
Cn1c(C(O)(c2ccccc2)c2ccccc2)nc2ccccc21,0.253,0.62
OC(COc1ccccc1)Cn1ccnc1 (stereo not given),0.244,0.621
CN1CCN(C2C3CC4CC(C3)CC2C4)CC1 (stereo not given),0.257,0.605
N#CC1=C(N)SC(N)=C(C#N)C1c1ccc(-c2ccccc2)cc1,0.242,0.607
OC1CCCN(Cc2ccc(Cl)cc2Cl)C1 (stereo not given),0.278,0.64
